Source: PubChem BioAssay AID1259308 (NCATS, 2017)

Screen: 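Candidate targets for better recombinant protein yield in mammalian cells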 (primary screen)
Cell system: human HEK293 embryonic kidney cells stably expressing firefly luciferase (HEK-CMV-Luc2-Hygro)
Reagent: single siRNA against human genes, 0.8 pmol siRNA per well
Time to read-out: 72 h
Detection: 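Luciferase light (ONE-Glo) measured on one replicate plate set and viability (CellTiter-Glo) on the other, scaled to a negative control siRNA, with robust z-scores and luciferase per cell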
Direction: total luciferase, z-score and total luciferase, % of control: higher = more reporter protein produced; luciferase per cell, z-score: higher = more reporter output per viable cell; viable cells, % of control: higher = more viable cells
Hit rule: 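An siRNA counts as active if its total luciferase robust z-score exceeds 3; genes with two or more such siRNAs out of three were retested with fresh siRNAs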
Calls: active = raised luciferase; inactive = no rise
Here is an unselected part of about 59,000 reagents. About 1,510 of all reagents (2.6%) count as active. 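Calls use total luciferase alone and ignore viability, so some active siRNAs may act by altering cell number.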 The numbers tell different reagents against one gene apart.

| gene | reagent | total luciferase, z-score | total luciferase, % of control | luciferase per cell, z-score | viable cells, % of control | Outcome |
| --- | --- | --- | --- | --- | --- | --- |
| LARP4 | 1 | 0.256 | 87 | -0.153 | 101 | inactive |
| LARP4 | 2 | 1.2 | 106 | 1.48 | 80 | inactive |
| LARP4 | 3 | -0.259 | 76.7 | -0.457 | 96.7 | inactive |
| C1QB | 1 | -0.167 | 78.6 | 0.137 | 84.7 | inactive |
| C1QB | 2 | 0.694 | 95.7 | 0.459 | 94.8 | inactive |
| C1QB | 3 | 1.22 | 106 | 0.711 | 98.4 | inactive |
| ACCS | 1 | -0.807 | 65.8 | -0.389 | 81.5 | inactive |
| ACCS | 2 | -0.278 | 76.4 | 0.38 | 77.2 | inactive |
| ACCS | 3 | -0.831 | 65.4 | -0.747 | 88.9 | inactive |
| ZNF208 | 1 | -0.414 | 73.7 | -0.134 | 85.3 | inactive |
| ZNF208 | 2 | 0.685 | 95.5 | 0.738 | 87.9 | inactive |
| ZNF208 | 3 | 0.488 | 91.6 | 0.396 | 92.2 | inactive |
| IKBIP | 1 | 1.14 | 105 | 1.64 | 75.9 | inactive |
| IKBIP | 2 | 0.565 | 93.1 | 0.448 | 92.5 | inactive |
| IKBIP | 3 | 0.236 | 86.6 | -0.432 | 108 | inactive |
| SPATA2 | 1 | -0.374 | 74.5 | 0.835 | 66.8 | inactive |
| SPATA2 | 2 | -2.79 | 26.4 | -3.59 | 76 | inactive |
| SPATA2 | 3 | -2 | 42.1 | 2.02 | 27.7 | inactive |
| IGF2R | 1 | 2.6 | 134 | 2.21 | 83.4 | inactive |
| IGF2R | 2 | 0.649 | 94.8 | 0.0723 | 104 | inactive |
| IGF2R | 3 | -1.4 | 53.9 | -1.33 | 85.6 | inactive |
| WDR41 | 1 | 0.414 | 90.1 | -0.0155 | 101 | inactive |
| WDR41 | 2 | -0.318 | 75.6 | -1.24 | 117 | inactive |
| WDR41 | 3 | -0.507 | 71.8 | -0.025 | 80.8 | inactive |
| TMEM52 | 1 | 2.53 | 132 | 1.74 | 93.4 | inactive |
| TMEM52 | 2 | 0.0278 | 82.4 | -0.0998 | 94.6 | inactive |
| TMEM52 | 3 | 1.52 | 112 | 0.894 | 99 | inactive |

Records listed so far whose target name begins with S or s:
| gene | reagent | total luciferase, z-score | total luciferase, % of control | luciferase per cell, z-score | viable cells, % of control | Outcome |
| --- | --- | --- | --- | --- | --- | --- |
| SPATA2 | 1 | -0.374 | 74.5 | 0.835 | 66.8 | inactive |
| SPATA2 | 2 | -2.79 | 26.4 | -3.59 | 76 | inactive |
| SPATA2 | 3 | -2 | 42.1 | 2.02 | 27.7 | inactive |

The listing continues:
| gene | reagent | total luciferase, z-score | total luciferase, % of control | luciferase per cell, z-score | viable cells, % of control | Outcome |
| --- | --- | --- | --- | --- | --- | --- |
| KIAA1217 | 1 | -0.575 | 70.4 | -0.684 | 94.3 | inactive |
| KIAA1217 | 2 | 1.54 | 113 | 0.823 | 101 | inactive |
| KIAA1217 | 3 | -2.13 | 39.5 | -1.85 | 71.7 | inactive |
| DPRX | 1 | 0.235 | 86.6 | -0.364 | 106 | inactive |
| DPRX | 2 | -2.01 | 41.9 | -1.89 | 76.9 | inactive |
| DPRX | 3 | -0.191 | 78.1 | -0.522 | 100 | inactive |
| AKR1C4 | 1 | -2.13 | 39.6 | -1.34 | 62.9 | inactive |
| AKR1C4 | 2 | 0.189 | 85.6 | -0.525 | 110 | inactive |
| AKR1C4 | 3 | 1.95 | 121 | 1.27 | 96.6 | inactive |
| SAXO5 | 1 | 0.767 | 97.1 | 1.24 | 78.3 | inactive |
| SAXO5 | 2 | -1.14 | 59.1 | -0.493 | 75.2 | inactive |
| SAXO5 | 3 | 0.137 | 84.6 | 0.127 | 91.4 | inactive |
| NT5C | 1 | 0.209 | 86 | -0.351 | 105 | inactive |
| NT5C | 2 | 1.89 | 120 | 2.18 | 75.2 | inactive |
| NT5C | 3 | 0.158 | 85 | 0.144 | 91.5 | inactive |
| SPAG7 | 1 | -1.05 | 61 | -0.812 | 84.4 | inactive |
| SPAG7 | 2 | -0.356 | 74.8 | -0.447 | 94 | inactive |
| SPAG7 | 3 | -1.37 | 54.7 | -1.03 | 80.1 | inactive |
| WDR83OS | 1 | 1.54 | 112 | 1.95 | 75.2 | inactive |
| WDR83OS | 2 | -0.91 | 63.8 | -0.964 | 91.9 | inactive |
| WDR83OS | 3 | 0.0179 | 82.2 | -0.264 | 98.5 | inactive |
| TMEM144 | 1 | -0.702 | 67.9 | -0.728 | 91.9 | inactive |
| TMEM144 | 2 | 1.78 | 117 | 1.2 | 95.5 | inactive |
| TMEM144 | 3 | -0.491 | 72.1 | -0.726 | 97.6 | inactive |
| LSM11 | 1 | 0.0578 | 83 | -0.0785 | 94.7 | inactive |
| LSM11 | 2 | 0.634 | 94.5 | -0.0864 | 108 | inactive |
| LSM11 | 3 | -0.705 | 67.9 | -0.472 | 85.9 | inactive |
| C11orf71 | 1 | -1.23 | 57.4 | -1.27 | 89.6 | inactive |
| C11orf71 | 2 | -1.06 | 60.8 | -1.08 | 90.3 | inactive |
| C11orf71 | 3 | 2.73 | 136 | 2.1 | 87.6 | inactive |
